# According to the supplement of paper PMC8728848:
# The list shows a part of the results.
# B1: Aap arpt (Staphylococcus epidermidis) (protein)
# chain: NNEAPQMSSTLQAEEGSNAEAPQSEPTKAEEGGNAEAAQSEPTKAEEGGNAEAPQSEPTKAEEGGNAEAAQSEPTKTEEGSNVKAAQSEPTKAEEGSNAEAPQSEPTKTEEGSNAKAAQSEPTKAEEGGNAEAAQSEPTKTEEGSNAEAPQSEPTKAEEGGYAEAPQSEPTKTEEGGNAEAPNVPTIKA
# Assays:
# Assay in all cases: glycan array binding signal (z-score within array); higher = stronger binding
# Details in all cases: glycan notation: IUPAC condensed, linker removed
# [1] = molecular target: Glc(b1-6)Glc
# Procedure, shortened: (§1)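 The Consortium for Functional Glycomics database supplied 3228 glycan arrays, of which those lacking an available protein sequence were dropped. The binding signal, a within-array Z-score, was averaged across arrays of the same protein sequence and across linkers. Negative scores can be read as non-binding.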
# [2] = molecular target: GlcA(b1-3)Gal
# Procedure, shortened: as §1
# [3] = molecular target: GlcA(b1-3)GlcNAc
# Procedure, shortened: as §1
# [4] = molecular target: GlcA(b1-6)Gal
# Procedure, shortened: as §1
# [5] = molecular target: GlcA3S(b1-3)Gal(b1-4)GlcNAc(b1-2)Man
# Procedure, shortened: as §1
# [6] = molecular target: GlcA3S(b1-3)Gal(b1-4)GlcNAc(b1-3)Gal(b1-4)Glc
# Procedure, shortened: as §1
# [7] = molecular target: GlcNAc(a1-3)Gal(b1-4)GlcNAc
# Procedure, shortened: as §1
# [8] = molecular target: GlcNAc(a1-4)Gal(b1-3)GlcNAc
# Procedure, shortened: as §1
# [9] = molecular target: GlcNAc(a1-4)Gal(b1-4)GalNAc
# Procedure, shortened: as §1
# [10] = molecular target: GlcNAc(a1-4)Gal(b1-4)GlcNAc
# Procedure, shortened: as §1
# [11] = molecular target: GlcNAc(a1-4)Gal(b1-4)GlcNAc(b1-3)Gal(b1-4)Glc
# Procedure, shortened: as §1
# [12] = molecular target: GlcNAc(a1-4)Gal(b1-4)GlcNAc(b1-3)Gal(b1-4)GlcNAc
# Procedure, shortened: as §1
# [13] = molecular target: GlcNAc(a1-4)Gal(b1-4)GlcNAc(b1-3)Gal(b1-4)GlcNAc(b1-3)Gal(b1-4)GlcNAc
# Procedure, shortened: as §1
# [14] = molecular target: GlcNAc(a1-4)Gal(b1-4)GlcNAc(b1-3)Gal(b1-4)[Fuc(a1-3)]GlcNAc(b1-3)Gal(b1-4)[Fuc(a1-3)]GlcNAc
# Procedure, shortened: as §1
# [15] = molecular target: GlcNAc(a1-6)Gal(b1-4)GlcNAc
# Procedure, shortened: as §1
# [16] = molecular target: GlcNAc(b1-2)Gal(b1-3)GalNAc
# Procedure, shortened: as §1
# [17] = molecular target: GlcNAc(b1-2)Man(a1-3)[GlcNAc(b1-2)Man(a1-6)]Man(b1-4)GlcNAc(b1-4)GlcNAc
# Procedure, shortened: as §1
# [18] = molecular target: GlcNAc(b1-2)Man(a1-3)[GlcNAc(b1-2)Man(a1-6)]Man(b1-4)GlcNAc(b1-4)[Fuc(a1-6)]GlcNAc
# Procedure, shortened: as §1
# [19] = molecular target: GlcNAc(b1-2)Man(a1-3)[GlcNAc(b1-4)][GlcNAc(b1-2)Man(a1-6)]Man(b1-4)GlcNAc(b1-4)GlcNAc
# Procedure, shortened: as §1
# [20] = molecular target: GlcNAc(b1-2)Man(a1-3)[GlcNAc(b1-4)][GlcNAc(b1-2)Man(a1-6)]Man(b1-4)GlcNAc(b1-4)[Fuc(a1-6)]GlcNAc
# Procedure, shortened: as §1
# [21] = molecular target: GlcNAc(b1-2)[GlcNAc(b1-4)]Man(a1-3)[GlcNAc(b1-2)Man(a1-6)]Man(b1-4)GlcNAc(b1-4)GlcNAc
# Procedure, shortened: as §1
# [22] = molecular target: GlcNAc(b1-2)[GlcNAc(b1-4)]Man(a1-3)[GlcNAc(b1-4)][GlcNAc(b1-2)Man(a1-6)]Man(b1-4)GlcNAc(b1-4)GlcNAc
# Procedure, shortened: as §1
# [23] = molecular target: GlcNAc(b1-2)[GlcNAc(b1-4)]Man(a1-3)[GlcNAc(b1-4)][GlcNAc(b1-2)[GlcNAc(b1-6)]Man(a1-6)]Man(b1-4)GlcNAc(b1-4)GlcNAc
# Procedure, shortened: as §1
# [24] = molecular target: GlcNAc(b1-2)[GlcNAc(b1-4)]Man(a1-3)[GlcNAc(b1-4)][GlcNAc(b1-2)[GlcNAc(b1-6)]Man(a1-6)]Man(b1-4)GlcNAc(b1-4)[Fuc(a1-6)]GlcNAc
# Procedure, shortened: as §1
# [25] = molecular target: GlcNAc(b1-2)[GlcNAc(b1-6)]Man(a1-6)[GlcNAc(b1-2)Man(a1-3)]Man(b1-4)GlcNAc(b1-4)GlcNAc
# Procedure, shortened: as §1
# [26] = molecular target: GlcNAc(b1-2)[GlcNAc(b1-6)]Man(a1-6)[GlcNAc(b1-2)Man(a1-3)]Man(b1-4)GlcNAc(b1-4)[Fuc(a1-6)]GlcNAc
# Procedure, shortened: as §1
# [27] = molecular target: GlcNAc(b1-2)[GlcNAc(b1-6)]Man(a1-6)[GlcNAc(b1-4)][GlcNAc(b1-2)Man(a1-3)]Man(b1-4)GlcNAc(b1-4)GlcNAc
# Procedure, shortened: as §1
# [28] = molecular target: GlcNAc(b1-3)Fuc
# Procedure, shortened: as §1
# [29] = molecular target: GlcNAc(b1-3)Gal
# Procedure, shortened: as §1
# [30] = molecular target: GlcNAc(b1-3)Gal(b1-3)GalNAc
# Procedure, shortened: as §1
# [31] = molecular target: GlcNAc(b1-3)Gal(b1-4)Glc
# Procedure, shortened: as §1
# [32] = molecular target: GlcNAc(b1-3)Gal(b1-4)GlcNAc
# Procedure, shortened: as §1
# [33] = molecular target: GlcNAc(b1-3)Gal(b1-4)GlcNAc(b1-2)Man(a1-3)[GlcNAc(b1-3)Gal(b1-4)GlcNAc(b1-2)Man(a1-6)]Man(b1-4)GlcNAc(b1-4)GlcNAc
# Procedure, shortened: as §1
# [34] = molecular target: GlcNAc(b1-3)Gal(b1-4)GlcNAc(b1-2)Man(a1-3)[GlcNAc(b1-3)Gal(b1-4)GlcNAc(b1-2)Man(a1-6)]Man(b1-4)GlcNAc(b1-4)[Fuc(a1-6)]GlcNAc
# Procedure, shortened: as §1
# [35] = molecular target: GlcNAc(b1-3)Gal(b1-4)GlcNAc(b1-2)[GlcNAc(b1-3)Gal(b1-4)GlcNAc(b1-6)]Man(a1-6)[GlcNAc(b1-3)Gal(b1-4)GlcNAc(b1-2)Man(a1-3)]Man(b1-4)GlcNAc(b1-4)GlcNAc
# Procedure, shortened: as §1
# [36] = molecular target: GlcNAc(b1-3)Gal(b1-4)GlcNAc(b1-3)Gal(b1-4)GlcNAc
# Procedure, shortened: as §1
# [37] = molecular target: GlcNAc(b1-3)Gal(b1-4)GlcNAc(b1-3)Gal(b1-4)GlcNAc(b1-2)Man(a1-3)[GlcNAc(b1-3)Gal(b1-4)GlcNAc(b1-3)Gal(b1-4)GlcNAc(b1-2)Man(a1-6)]Man(b1-4)GlcNAc(b1-4)GlcNAc
# Procedure, shortened: as §1
# [38] = molecular target: GlcNAc(b1-3)Gal(b1-4)GlcNAc(b1-3)Gal(b1-4)GlcNAc(b1-2)Man(a1-3)[GlcNAc(b1-3)Gal(b1-4)GlcNAc(b1-3)Gal(b1-4)GlcNAc(b1-2)Man(a1-6)]Man(b1-4)GlcNAc(b1-4)[Fuc(a1-6)]GlcNAc
# Procedure, shortened: as §1
# [39] = molecular target: GlcNAc(b1-3)Gal(b1-4)GlcNAc(b1-3)Gal(b1-4)GlcNAc(b1-2)[GlcNAc(b1-3)Gal(b1-4)GlcNAc(b1-3)Gal(b1-4)GlcNAc(b1-6)]Man(a1-6)[GlcNAc(b1-3)Gal(b1-4)GlcNAc(b1-3)Gal(b1-4)GlcNAc(b1-2)Man(a1-3)]Man(b1-4)GlcNAc(b1-4)[Fuc(a1-6)]GlcNAc
# Procedure, shortened: as §1
# [40] = molecular target: GlcNAc(b1-3)Gal(b1-4)GlcNAc(b1-3)Gal(b1-4)GlcNAc(b1-3)Gal(b1-4)GlcNAc(b1-2)Man(a1-3)[GlcNAc(b1-3)Gal(b1-4)GlcNAc(b1-3)Gal(b1-4)GlcNAc(b1-3)Gal(b1-4)GlcNAc(b1-2)Man(a1-6)]Man(b1-4)GlcNAc(b1-4)GlcNAc
# Procedure, shortened: as §1
# [41] = molecular target: GlcNAc(b1-3)Gal(b1-4)GlcNAc(b1-3)Gal(b1-4)GlcNAc(b1-3)Gal(b1-4)GlcNAc(b1-2)Man(a1-3)[GlcNAc(b1-3)Gal(b1-4)GlcNAc(b1-3)Gal(b1-4)GlcNAc(b1-3)Gal(b1-4)GlcNAc(b1-2)Man(a1-6)]Man(b1-4)GlcNAc(b1-4)[Fuc(a1-6)]GlcNAc
# Procedure, shortened: as §1
# [42] = molecular target: GlcNAc(b1-3)Gal(b1-4)GlcNAc(b1-3)Gal(b1-4)GlcNAc(b1-3)Gal(b1-4)GlcNAc(b1-2)[GlcNAc(b1-3)Gal(b1-4)GlcNAc(b1-3)Gal(b1-4)GlcNAc(b1-3)Gal(b1-4)GlcNAc(b1-6)]Man(a1-6)[GlcNAc(b1-3)Gal(b1-4)GlcNAc(b1-3)Gal(b1-4)GlcNAc(b1-3)Gal(b1-4)GlcNAc(b1-2)Man(a1-3)]Man(b1-4)GlcNAc(b1-4)[Fuc(a1-6)]GlcNAc
# Procedure, shortened: as §1
# [43] = molecular target: GlcNAc(b1-3)Gal(b1-4)GlcNAc(b1-3)Gal(b1-4)GlcNAc(b1-3)Gal(b1-4)GlcNAc(b1-3)Gal(b1-4)GlcNAc(b1-2)Man(a1-3)[GlcNAc(b1-3)Gal(b1-4)GlcNAc(b1-3)Gal(b1-4)GlcNAc(b1-3)Gal(b1-4)GlcNAc(b1-3)Gal(b1-4)GlcNAc(b1-2)Man(a1-6)]Man(b1-4)GlcNAc(b1-4)GlcNAc
# Procedure, shortened: as §1
# [44] = molecular target: GlcNAc(b1-3)Gal(b1-4)GlcNAc(b1-3)Gal(b1-4)GlcNAc(b1-3)Gal(b1-4)GlcNAc(b1-3)Gal(b1-4)GlcNAc(b1-2)Man(a1-3)[GlcNAc(b1-3)Gal(b1-4)GlcNAc(b1-3)Gal(b1-4)GlcNAc(b1-3)Gal(b1-4)GlcNAc(b1-3)Gal(b1-4)GlcNAc(b1-2)Man(a1-6)]Man(b1-4)GlcNAc(b1-4)[Fuc(a1-6)]GlcNAc
# Procedure, shortened: as §1
# [45] = molecular target: GlcNAc(b1-3)Gal(b1-4)GlcNAc(b1-3)Gal(b1-4)GlcNAc(b1-3)Gal(b1-4)GlcNAc(b1-3)Gal(b1-4)GlcNAc(b1-2)[GlcNAc(b1-3)Gal(b1-4)GlcNAc(b1-3)Gal(b1-4)GlcNAc(b1-3)Gal(b1-4)GlcNAc(b1-3)Gal(b1-4)GlcNAc(b1-6)]Man(a1-6)[GlcNAc(b1-3)Gal(b1-4)GlcNAc(b1-3)Gal(b1-4)GlcNAc(b1-3)Gal(b1-4)GlcNAc(b1-3)Gal(b1-4)GlcNAc(b1-2)Man(a1-3)]Man(b1-4)GlcNAc(b1-4)[Fuc(a1-6)]GlcNAc
# Procedure, shortened: as §1
binder,measurement,setting,value
B1,glycan array binding signal (z-score),[1],-1.3
same,glycan array binding signal (z-score),[2],-0.023
same,glycan array binding signal (z-score),[3],0.04
same,glycan array binding signal (z-score),[4],1.29
same,glycan array binding signal (z-score),[5],0.389
same,glycan array binding signal (z-score),[6],0.151
same,glycan array binding signal (z-score),[7],-0.562
same,glycan array binding signal (z-score),[8],-0.533
same,glycan array binding signal (z-score),[9],0.406
same,glycan array binding signal (z-score),[10],-0.322
same,glycan array binding signal (z-score),[11],-2.04
same,glycan array binding signal (z-score),[12],1.32
same,glycan array binding signal (z-score),[13],0.142
same,glycan array binding signal (z-score),[14],2.41
same,glycan array binding signal (z-score),[15],-0.091
same,glycan array binding signal (z-score),[16],0.266
same,glycan array binding signal (z-score),[17],-0.25
same,glycan array binding signal (z-score),[18],0.608
same,glycan array binding signal (z-score),[19],-0.803
same,glycan array binding signal (z-score),[20],-0.141
same,glycan array binding signal (z-score),[21],0.977
same,glycan array binding signal (z-score),[22],1.6
same,glycan array binding signal (z-score),[23],-0.611
same,glycan array binding signal (z-score),[24],1.35
same,glycan array binding signal (z-score),[25],0.85
same,glycan array binding signal (z-score),[26],-0.168
same,glycan array binding signal (z-score),[27],0.207
same,glycan array binding signal (z-score),[28],1.23
same,glycan array binding signal (z-score),[29],-2.77
same,glycan array binding signal (z-score),[30],0.806
same,glycan array binding signal (z-score),[31],2.07
same,glycan array binding signal (z-score),[32],-0.004
same,glycan array binding signal (z-score),[33],-1.09
same,glycan array binding signal (z-score),[34],0.572
same,glycan array binding signal (z-score),[35],-0.719
same,glycan array binding signal (z-score),[36],-0.333
same,glycan array binding signal (z-score),[37],-0.258
same,glycan array binding signal (z-score),[38],1.14
same,glycan array binding signal (z-score),[39],0.827
same,glycan array binding signal (z-score),[40],-0.309
same,glycan array binding signal (z-score),[41],0.616
same,glycan array binding signal (z-score),[42],1.34
same,glycan array binding signal (z-score),[43],0.336
same,glycan array binding signal (z-score),[44],0.618
same,glycan array binding signal (z-score),[45],0.703

# Taken from the entries so far (three entries):
binder,measurement,setting,value
B1,glycan array binding signal (z-score),[18],0.608
same,glycan array binding signal (z-score),[19],-0.803
same,glycan array binding signal (z-score),[20],-0.141
